Results on one sequence are retold here after article PMC7566476, “MYB61 is regulated by GRF4 and promotes nitrogen utilization and biomass production in rice”.

In the data set the target is T1, GST-GRF4 (UniProt Q6ZIK5).
T1 sequence (looked up, limits assumed): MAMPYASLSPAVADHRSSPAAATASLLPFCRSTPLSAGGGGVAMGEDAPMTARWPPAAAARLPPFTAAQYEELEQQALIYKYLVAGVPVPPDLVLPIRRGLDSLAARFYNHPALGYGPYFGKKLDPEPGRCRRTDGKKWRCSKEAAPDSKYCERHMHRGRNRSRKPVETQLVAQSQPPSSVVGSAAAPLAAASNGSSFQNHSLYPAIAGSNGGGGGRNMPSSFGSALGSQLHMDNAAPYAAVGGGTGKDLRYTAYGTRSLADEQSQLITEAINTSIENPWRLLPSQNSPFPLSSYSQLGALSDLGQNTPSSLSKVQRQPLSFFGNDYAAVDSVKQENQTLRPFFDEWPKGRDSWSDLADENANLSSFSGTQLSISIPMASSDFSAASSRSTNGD
The data set is described as follows: EMSA. Particulars: EMSA binding buffer (Beyotime; composition, salt and pH not given), 4 °C; unlabeled competitor 50-, 100- and 500-fold; recombinant protein; protein details: N-terminal GST (pGEX-6P-1); label: biotin. On the technique in general: A gel shift assay detects complexes by their altered migration in electrophoresis.

For at least one entry, the source does not settle the construct or the ends of the probe. Negatives hold for the conditions tested. Tags and fusion partners may be left off the protein sequences shown.

“CATCGAGGGGCGGCAACTAATGTT (double strand) [MYB61 promoter motif 1 probe]”: the binding result is on record as “no binding”.
